Reference: PubChem BioAssay AID1347423 (Functional Genomics Laboratory (NCATS/FGL), 2020)
Out of some 52,000 sequences screened, about 210 (0.4%) were called active.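 Rule for the calls: active = gene whose silencing raises cell survival under the drug, median off-target-corrected z-score across its silencing RNAs 2 or more; inactive = the rest.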 The list shows a part of the results.

assay: Resistance to Poly (ADP-Ribose) Polymerase inhibitor: Gene Identification via Genome-wide siRNA Screen; settings: mouse BRCA2 R2336H ES cells, olaparib, CellTiter-Glo viability; active compounds read high
In short: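 Mouse BRCA2 R2336H ES cells were reverse-transfected with siRNA (20 nM final), treated at 48 h with 500 nM olaparib, and read by CellTiter-Glo after 72 h. Scores: MAD-based z per siRNA, median per gene, seed off-target correction.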

| Sequence | z-score |
| --- | --- |
| GGAUUUGAGGUUUUAGGAATT against Qtrtd1 | inactive: 2.67 |
| CCAUAUAUCUGAUCACACUTT against Olfr832 | inactive: 0.801 |
| CGAUUGAUGAAUCUGGUUCTT against Racgap1 | inactive: 0.0197 |
| GCCUAGAAAGUUCUAUGUUTT against Fcho1 | inactive: -0.429 |
| GGUUUUGGUAUAGAUACUUTT against Phxr4 | inactive: 0.155 |
| CCCAUCCCUGUAAAAAUUCTT against 0610025L06Rik | inactive: 0.108 |
| CGUUUGUUGAAAGAAGAAGTT against D10Ertd214e | inactive: -0.964 |
| CGAAAAUCUUCUGGCUCACTT against Llglh2 | inactive: 0.0181 |
| GGACAAUGUUUUGAUGAGUTT against D6Wsu176e | inactive: 0.308 |
| CGUGGAUAAAAUUAAGUAGTT against Pdlim2 | inactive: -0.41 |
| GGAGGAAUACAAAUUCAAGTT against AF119384 | inactive: 0.649 |
| GGAACCAUGGCAGUGCAUCTT against Dlk1 | inactive: 0.0123 |
| CCCAACAUUAUCUUGGACCTT against Mrgpra8 | inactive: -0.136 |
| GCUUCUUCAAGAGUAUAAUTT against Gad2 | inactive: 0.412 |
| GGAUUCCUUACCAAAGAAGTT against 1700008F21Rik | inactive: 1.21 |
| CCAAGACAUCACAUUCAUATT against 4933403H06Rik | inactive: -0.253 |
| GCAAACCAGGGAAAAAGUGTT against 4631426G04Rik | inactive: -1.47 |
| CGUAGAUGUCCUAGAAUUGTT against Rundc1 | inactive: 0.791 |
| GGGUUCUCAAGGUUGCAUUTT against Frs3 | inactive: -0.404 |
| GCAAAUUUAAGAGAAGUUGTT against Sart2 | inactive: 0.642 |
| CGGCCAAUUUGCCUUUCUCTT against Hes1 | inactive: 0.651 |
| GGAUCACGUUUCAAACAUCTT against Pip3ap | inactive: 0.0755 |

| Sequence | z-score |
| --- | --- |
| GCUUGUAAUGGUUAAUGUATT against Wtap | inactive: -0.0729 |
| GGACUAGAAACAAUGUCAATT against Siat10 | inactive: 1.18 |
| GGACGAGAUGAACAGCCUCTT against Chkb | inactive: -2.34 |
| GGCAUUGGUUAAAAAAGUUTT against Otx2 | inactive: -0.919 |
| GCACUUCCUAACUGGUGCUTT against Olfr996 | inactive: 4.5 |
| CGGAAUGUCAAUUUAAAGATT against Adam18 | inactive: 0.82 |
| GCGAAAGUCUACAAAAGAGTT against Thrap3 | inactive: -1.48 |
| AGGAGCUCCUCAAAGCUCUTT against Zfp395 | inactive: -0.461 |
| GCCUUAACUCUUCUGGGAGTT against Stam | inactive: 1.25 |
| GGUGCUCAUUGCUGUUUCUTT against BC011487 | inactive: -2.23 |
| CGUGCCAUAAUACACUAUCTT against Gng5 | inactive: -1.15 |
| GGCGAUGCUUCUUCAGUACTT against 1700030E05Rik | inactive: -1.01 |
| UCGAUGUACUGAGCUAAGGTT against Psme2 | inactive: 0.473 |
| CCAUGAAGAUUUCUCGUUUTT against Ifrd1 | inactive: 0.85 |
| CCGCCUAAAAUCAGAAGCATT against 2900042E01Rik | inactive: -0.00286 |
| GGUCUUGGUCCCUGAGAAATT against Ddit4l | inactive: -1.26 |
| GCCCGAUAUCGUGUUUUUCTT against Sirt2 | inactive: 0.571 |
| GCAAAACUUAUCUGACCUATT against Smn1 | inactive: 0.948 |
| GCCCUGUGCUUGGCAACAUTT against Ssbp3 | inactive: -0.405 |
| CGCAAAAAUCAGCACAGCUTT against Ptp4a3 | inactive: 0.652 |
| GCUUGUCCUAUCUAUUUUATT against Mthfd2 | inactive: 1.25 |
| GCAUAAAGCAGUCAUGCUUTT against 4933433P14Rik | inactive: -0.36 |

Reformatted: entries from further up.
Sequence,z-score
GCGAAAGUCUACAAAAGAGTT against Thrap3,inactive: -1.48
AGGAGCUCCUCAAAGCUCUTT against Zfp395,inactive: -0.461

Continuation:

| Sequence | z-score |
| --- | --- |
| GGAGACUACUUUGUGUUUUTT against MGC28180 | inactive: 0.668 |
| GGCAAAGAAAACCAUGUCCTT against Zfp82 | inactive: 0.74 |
| GCUUGUACUGCUAAUACUUTT against Pggt1b | inactive: -0.799 |
| GGUGAACACCUUUAUGAGGTT against Dguok | inactive: 0.547 |
| GGAUGAACCAAGCUACUGCTT against Gba2 | inactive: 0.0382 |
| GUGUGCUUGAUGGAGACCATT against 2310007A19Rik | inactive: 1.79 |
| GGAUGGUAUAUGAUGAGAUTT against 9030221C07Rik | inactive: 1.57 |
| GCGAAGUGCCUGCUAUUCUTT against A830039B04Rik | inactive: -1.07 |
| GCCUGACUUUCUUAAAGGCTT against 2810006K23Rik | inactive: 0.773 |
| CCUAGAUUCGGACAAGGAUTT against Kctd5 | inactive: 0.849 |
| GGCCAAGAAGGAAAGGGAUTT against Atp1a1 | inactive: -1.33 |
| GCAGAAUAGCUGAUGACAGTT against Galntl2 | inactive: -0.634 |
| GGUGCAAGGAAAAACAAAATT against Ggh | inactive: 1.17 |
| GGCCAGAAAUGUACAUACATT against Map4k5 | inactive: -1.27 |
| GCCUGAAUAUUGCUAUCACTT against AI790205 | inactive: -0.89 |
| GCUGCCAAAAGAUCUCGGGTT against Nfil3 | inactive: 1.49 |
| GCAGCAAGCUUAAUUACAGTT against Wins2 | inactive: -0.351 |
| GGUUACGUCUACGACUGGATT against Scml2 | inactive: -1.52 |
| GGAAAUGAGGAUGAGGUCCTT against 0610009A07Rik | inactive: -0.817 |
| CGAGUACGCUCUGCUAUUCTT against Ptgds | inactive: -0.013 |
| GGAGGUCACCUUCUCAAACTT against Mrgprf | inactive: -0.558 |
| GGUUCAGUUUGCCAAAGACTT against A930017N06Rik | inactive: -2.86 |

Single entries from above:
z-score, CGAGUACGCUCUGCUAUUCTT against Ptgds reads inactive: -0.013
z-score, GCUGCCAAAAGAUCUCGGGTT against Nfil3 reads inactive: 1.49
z-score, GGAUGGUAUAUGAUGAGAUTT against 9030221C07Rik reads inactive: 1.57
